Measured values from PMC3811882.
For at least one entry, the source does not settle the construct or the ends of the probe. For some of these results: A weaker result is weaker than the reference pair of the same experiment. For some of these results: At least one verdict rests on a figure or table, not on a statement of the authors. For some of these results: Where a protein sequence is shown, tags need not be part of it. For some of these results: Results from cells or extracts need not show a direct contact. For some of these results: Negatives hold for the conditions tested.

Assays:
Prdm4ΔZF-EGFP (mouse) = Prdm4ΔZF-EGFP (mouse) (UniProt Q80V63); test: EMSA; conditions: nuclear extract, protein predominantly cytoplasmic; EMSA as previously described (ref 41); 0.8% agarose gels for nuclear complexes, 5% acrylamide for purified His-tagged Prdm4; pH and temperature not given; protein in an extract; protein details: C-terminal EGFP
[1] = molecular target: Prdm4-EGFP (full length) (mouse) (UniProt Q80V63); test: EMSA supershift; conditions: supershift with anti-Prdm4 or anti-GFP antibody; EMSA as previously described (ref 41); 0.8% agarose gels for nuclear complexes, 5% acrylamide for purified His-tagged Prdm4; pH and temperature not given; protein in an extract; residues 1-803; protein details: C-terminal EGFP
Prdm4-ZFD = molecular target: T1, Prdm4-ZFD (UniProt Q80V63); test: EMSA; conditions: EMSA as previously described (ref 41); 0.8% agarose gels for nuclear complexes, 5% acrylamide for purified His-tagged Prdm4; pH and temperature not given; recombinant protein; protein details: …
T1 sequence (looked up, limits assumed): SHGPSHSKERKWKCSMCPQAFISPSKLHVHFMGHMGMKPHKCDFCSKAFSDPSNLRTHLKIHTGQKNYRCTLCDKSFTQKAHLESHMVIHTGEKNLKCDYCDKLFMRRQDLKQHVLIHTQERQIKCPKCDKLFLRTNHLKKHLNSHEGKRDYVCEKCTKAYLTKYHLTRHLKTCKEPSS

Sequence | binding result (Prdm4ΔZF-EGFP (mouse)) | binding result [1] | binding result (Prdm4-ZFD)
GGCCTGGGTCGGCCCGCGGGGATCCTGGAAACCGTCCCCGGTTTATCTCCTT / GGAAGGAGATAAACCGGGGACGGTTTCCAGGATCCCCGCGGGCCGACCCAGG [wild-type Bahcc1] | no binding | binds | –
GGCCTGGGTCGGCCCGCGGGGATCAGGGAAACCGTCCCCGGTTTATCTCCTT / GGAAGGAGATAAACCGGGGACGGTTTCCCTGATCCCCGCGGGCCGACCCAGG [ΔCT Bahcc1] | – | – | binds more weakly
GGCCTGGGTCGGCCCGCTTTTATCCTGGAAACCGTCCCCGGTTTATCTCCTT / GGAAGGAGATAAACCGGGGACGGTTTCCAGGATAAAAGCGGGCCGACCCAGG [ΔGGGG Bahcc1] | – | – | binds more weakly
